Assay results from article PMC6359024.
No constants are given. Whether binding was seen depends on the method and setting. Some results given as binding are weak or reduced against the parent protein; the word gives no strength.

Target: Native calreticulin in the serum of bronchiectasis patients (human (endogenous in patient serum)) (UniProt P27797)
Test: native gel or EMSA; sera of two bronchiectasis patients, reduced or alkylated, native PAGE (TGX precast gels), immunoblot with anti-CRT and anti-LPS

- binding: binds
Substance: Native calreticulin in the serum of bronchiectasis patients (from UniProt P27797 18-417)
